# Experimental data from paper doi:10.1101/2023.01.02.522499.
# The chains behind the UniProt entries cited, without tags or fusion partners.
# UniProt Q16637: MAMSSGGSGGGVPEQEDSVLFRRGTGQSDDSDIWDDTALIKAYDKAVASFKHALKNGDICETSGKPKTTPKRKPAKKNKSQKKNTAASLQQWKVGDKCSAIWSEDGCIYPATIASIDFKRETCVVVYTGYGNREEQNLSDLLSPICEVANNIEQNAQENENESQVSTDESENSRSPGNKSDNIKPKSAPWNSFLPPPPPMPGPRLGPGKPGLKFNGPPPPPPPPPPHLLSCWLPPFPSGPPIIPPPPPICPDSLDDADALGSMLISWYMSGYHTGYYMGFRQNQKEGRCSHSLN
# UniProt O14893: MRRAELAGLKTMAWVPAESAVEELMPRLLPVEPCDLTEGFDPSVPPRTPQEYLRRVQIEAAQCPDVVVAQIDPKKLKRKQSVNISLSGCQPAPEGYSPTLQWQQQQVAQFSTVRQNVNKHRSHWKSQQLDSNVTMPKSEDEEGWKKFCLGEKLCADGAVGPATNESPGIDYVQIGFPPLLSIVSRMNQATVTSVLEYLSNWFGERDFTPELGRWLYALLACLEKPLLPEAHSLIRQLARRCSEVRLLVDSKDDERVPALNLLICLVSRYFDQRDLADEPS
# No constants are given. Whether binding was seen depends on the method and setting. In cells and extracts the contact can be indirect. Some binding calls cover weakened binding; strength is not graded here.
# Biological target: untagged SMN protein (survival of motoneuron protein) (human (endogenous in hiPSC)) (UniProt Q16637)
# Assay: co-IP
substance,measurement,value
gemin2 (from UniProt O14893 1-280),binding,binds
